Measured values as given in patent US6248865 (dated 2001).
[ ]: non-standard residue; d: D form. The star is where a group is joined. NMeV = CN[C@H](C(=O)O)C(C)C; Cbz = O=C(OCc1ccccc1)*

Experiment: general procedure: solution-phase peptide synthesis; pivaloyl chloride / triethylamine (mixed anhydride)
Settings: HCl; for step yield: of theory

Cbz-VV[NMeV]P-OMe
purity (crude or final not stated) (coupling step, HPLC percentage area): 98.5%
step yield (coupling step): 79% of theory

Me2 Val-Val-MeVal-Pro-OMe x HCl
purity (crude or final not stated) (late stage modification step, HPLC percentage area): 99.9%
step yield (late stage modification step): 92.3% of theory
final HPLC purity (whole synthesis, HPLC percentage area): 99.4%
